This assay deals with endogenous PABPC1 (HeLa cells) (human (endogenous in HeLa)) (UniProt P11940). As to the kind of experiment: co-IP.

By UniProt entry, the sequences of proteins in these tests, tags left out.
UniProt P11940: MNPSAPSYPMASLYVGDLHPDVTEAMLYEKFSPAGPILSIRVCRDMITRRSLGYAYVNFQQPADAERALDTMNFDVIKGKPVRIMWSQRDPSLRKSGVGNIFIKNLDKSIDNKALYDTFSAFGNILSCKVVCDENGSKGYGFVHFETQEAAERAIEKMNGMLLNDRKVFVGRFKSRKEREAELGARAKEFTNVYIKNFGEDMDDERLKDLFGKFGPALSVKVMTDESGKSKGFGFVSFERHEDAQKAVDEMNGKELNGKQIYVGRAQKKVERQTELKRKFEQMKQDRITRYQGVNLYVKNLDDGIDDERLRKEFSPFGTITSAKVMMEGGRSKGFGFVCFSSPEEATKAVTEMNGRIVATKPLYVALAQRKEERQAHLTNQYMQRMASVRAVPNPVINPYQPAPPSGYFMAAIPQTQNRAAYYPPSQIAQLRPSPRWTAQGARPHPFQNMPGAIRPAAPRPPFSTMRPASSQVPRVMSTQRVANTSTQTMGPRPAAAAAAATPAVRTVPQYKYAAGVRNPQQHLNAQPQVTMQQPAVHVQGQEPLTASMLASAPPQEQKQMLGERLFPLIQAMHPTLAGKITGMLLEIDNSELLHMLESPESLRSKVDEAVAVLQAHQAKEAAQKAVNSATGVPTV

No constants are given. Whether binding was seen depends on the method and setting. In cells and extracts the contact can be indirect. Some entries that bind do so weakly or less than the wild type. Sequences can lack the tags named with a protein.

Regarding SNLNPNAPEFHPGVPWKGLQNI [GST-super-PAM2], the binding entry is reported as “binds”.

(Values after article doi:10.1101/2021.02.07.430161 (bioRxiv, 2021).)
